# Assay results as given in the supplement of paper PMC10689618.
# The other results are listed elsewhere or left out. Single values are uncertain, as repeats are few or missing.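 Primary human fetal astrocytes engulfed labelled rat cortical synaptosomes, measured as a red/green ratio corrected for calcein live-cell signal and scaled to the plate median. Toxicity meant calcein falling over 30%; decreased phagocytosis meant below 70% of median above 5 µM.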
# Legend:
# Human fetal astrocytes [1] = assay: loss of total cells relative to no-compound high-control median (toxicity); higher = more toxic (fewer cells); details: 24 h
# Human fetal astrocytes [2] = assay: synaptosome phagocytosis (pHrodo/calcein intensity ratio) relative to plate median of data wells; higher = more phagocytosis; details: 24 h
SMILES,loss of total cells (Human fetal astrocytes [1]; 1.39 µM) [%],loss of total cells (Human fetal astrocytes [1]; 2.78 µM) [%],loss of total cells (Human fetal astrocytes [1]; 5.56 µM) [%],loss of total cells (Human fetal astrocytes [1]; 11.11 µM) [%],loss of total cells (Human fetal astrocytes [1]; 22.22 µM) [%],synaptosome phagocytosis (Human fetal astrocytes [2]; 1.39 µM) [%],synaptosome phagocytosis (Human fetal astrocytes [2]; 2.78 µM) [%],synaptosome phagocytosis (Human fetal astrocytes [2]; 5.56 µM) [%],synaptosome phagocytosis (Human fetal astrocytes [2]; 11.11 µM) [%],synaptosome phagocytosis (Human fetal astrocytes [2]; 22.22 µM) [%]
CNC(C)C(O)c1ccccc1 (stereo not given),-7.4,-10.5,-18.8,4.9,-13.7,106,103,88.8,109,83.9
O=C1CC[C@@]2(O)[C@H]3Cc4ccc(O)c5c4[C@@]2(CCN3CC2CC2)[C@H]1O5,29,-29.4,8.7,14.1,-7.2,150,119,94.2,120,97
CC1(C)C2CC(=O)[C@]3(C)C(CC[C@@]4(C)[C@H](c5ccoc5)OC(=O)C5OC543)[C@@]2(C)[C@@H](O)C[C@H]1O (stereo not given in full),-10.5,7.3,2.3,-4.5,-10.7,80.9,109,106,80.3,68
CC(C)[C@@H]1NC(=O)[C@H](C)OC(=O)[C@@H](C(C)C)NC(=O)[C@@H](C(C)C)OC(=O)[C@H](C(C)C)NC(=O)[C@H](C)OC(=O)[C@@H](C(C)C)NC(=O)[C@@H](C(C)C)OC(=O)[C@H](C(C)C)NC(=O)[C@H](C)OC(=O)[C@@H](C(C)C)NC(=O)[C@@H](C(C)C)OC1=O [Valinomycin],9.8,31.4,24.2,26.4,31.1,37.7,50.1,58.2,66.6,43.9
CC(=O)O[C@@H]1CC[C@@]2(C)[C@@H](CC[C@@H]3[C@@H]2CC[C@]2(C)C(=O)CC[C@@H]32)C1,-7.6,-2.7,40.5,-13.5,39.6,106,121,142,93.2,182
O=C(O)CCCO,-9.1,1.5,1.5,7,16.4,118,84.1,98.4,97.1,99.7
COC(=O)NC(=S)Nc1ccccc1NC(=S)NC(=O)OC,16.2,15.5,-0.7,13.8,10.6,103,48,107,137,103
C=CC[C@]1(O)CC[C@H]2[C@@H]3CCC4=CC(=O)CCC4=C3C=C[C@@]21C,-37.9,33.3,-5,37.7,13.4,76.7,119,76.6,111,109
Oc1ccc2c3c1O[C@H]1[C@@H](O)CC[C@@]4(O)[C@@H](C2)N(CC2CCC2)CC[C@]314,-26.6,-20.4,-17.1,-16.4,-5.7,103,94.3,94.7,96.8,82.7
CN1CCCCC1c1ccc(-c2cccnc2)nc1 (stereo not given),-12.3,-12.6,2.2,17.6,19.3,97.6,112,87.8,106,74.7
Nc1ccc([As](=O)(O)O)cc1,-54,-27,-10.6,23.3,5.9,92.2,74.6,99.6,109,89
C[C@]12CC[C@H]3[C@@H](CC[C@]4(O)C[C@@H](O)CC[C@]34C=O)[C@@]1(O)CC[C@@H]2C1=CC(=O)OC1,-2.5,2.5,23.2,7.1,3,43,85.7,61.3,41.3,15.5
OCC(O)Cc1ccc2c(c1)OCO2 (stereo not given),3.3,-4,3.8,52.3,-11.5,90.2,112,88.5,128,102
NCC(=O)c1ccccc1,-23.8,-9.7,-16.8,2.7,14.1,110,114,98.4,104,121
c1cncc([C@@H]2CCCCN2)c1,-18.9,-5.4,-7.3,14.2,-4.4,145,104,114,106,94.5
O=C(O)CCC1NCC2CC1CN1CCCCC21 (stereo not given),-12.3,-11.9,0.7,26.4,16.3,126,125,116,158,144
CN1[C@@H]2CC[C@H]1C[C@@H](OC(=O)[C@H](CO)c1ccccc1)C2,9.8,-21.4,-0.7,11.2,-19.1,109,91.3,114,81.4,99.1
COc1ccc(/C=C/c2cc(O)cc(O)c2)cc1,-13.9,8.3,-1.5,23,11.9,116,93.4,117,101,101
NC(=O)C[S+]([O-])C(c1ccccc1)c1ccccc1 (stereo not given) [Modafinil],4.1,-20.4,7.5,-29.7,14.2,122,91.7,85,117,89.5
CC(C)=CC1C(C(=O)OCc2cccc(Oc3ccccc3)c2)C1(C)C (stereo not given),8.3,-1.8,8,-7.9,18.2,94.1,96.8,56.3,77.3,97.7

# Arranged by molar mass (high to low): 3 of the compounds above.
SMILES,loss of total cells (Human fetal astrocytes [1]; 1.39 µM) [%],loss of total cells (Human fetal astrocytes [1]; 2.78 µM) [%],loss of total cells (Human fetal astrocytes [1]; 5.56 µM) [%],loss of total cells (Human fetal astrocytes [1]; 11.11 µM) [%],loss of total cells (Human fetal astrocytes [1]; 22.22 µM) [%],synaptosome phagocytosis (Human fetal astrocytes [2]; 1.39 µM) [%],synaptosome phagocytosis (Human fetal astrocytes [2]; 2.78 µM) [%],synaptosome phagocytosis (Human fetal astrocytes [2]; 5.56 µM) [%],synaptosome phagocytosis (Human fetal astrocytes [2]; 11.11 µM) [%],synaptosome phagocytosis (Human fetal astrocytes [2]; 22.22 µM) [%]
CC1(C)C2CC(=O)[C@]3(C)C(CC[C@@]4(C)[C@H](c5ccoc5)OC(=O)C5OC543)[C@@]2(C)[C@@H](O)C[C@H]1O (stereo not given in full),-10.5,7.3,2.3,-4.5,-10.7,80.9,109,106,80.3,68
Oc1ccc2c3c1O[C@H]1[C@@H](O)CC[C@@]4(O)[C@@H](C2)N(CC2CCC2)CC[C@]314,-26.6,-20.4,-17.1,-16.4,-5.7,103,94.3,94.7,96.8,82.7
CC(=O)O[C@@H]1CC[C@@]2(C)[C@@H](CC[C@@H]3[C@@H]2CC[C@]2(C)C(=O)CC[C@@H]32)C1,-7.6,-2.7,40.5,-13.5,39.6,106,121,142,93.2,182

# Remaining list, next part

SMILES,loss of total cells (Human fetal astrocytes [1]; 1.39 µM) [%],loss of total cells (Human fetal astrocytes [1]; 2.78 µM) [%],loss of total cells (Human fetal astrocytes [1]; 5.56 µM) [%],loss of total cells (Human fetal astrocytes [1]; 11.11 µM) [%],loss of total cells (Human fetal astrocytes [1]; 22.22 µM) [%],synaptosome phagocytosis (Human fetal astrocytes [2]; 1.39 µM) [%],synaptosome phagocytosis (Human fetal astrocytes [2]; 2.78 µM) [%],synaptosome phagocytosis (Human fetal astrocytes [2]; 5.56 µM) [%],synaptosome phagocytosis (Human fetal astrocytes [2]; 11.11 µM) [%],synaptosome phagocytosis (Human fetal astrocytes [2]; 22.22 µM) [%]
CC(C)c1c(CN(C)C(C)Cc2ccccc2)n(C)n(-c2ccccc2)c1=O (stereo not given),1.8,8.3,2.9,-2.1,-3,110,117,85.2,134,131
C[C@]12CC[C@H]3[C@@H](CCC4=CC(=O)CC[C@@]43C)[C@@H]1CC[C@@H]2O,-14.9,-2.1,-5.7,12.5,-4,100,116,109,92.5,102
C[C@]12CC[C@H](O)C[C@H]1CC[C@@H]1[C@@H]2C[C@@H](O)[C@]2(C)[C@@H](C3=CC(=O)OC3)CC[C@]12O,26.4,-5.3,-3.8,43.2,8.5,180,115,86.9,42.5,45.8
COP(=S)(OC)Oc1ccc(Sc2ccc(OP(=S)(OC)OC)cc2)cc1,-23.2,-0.9,3.3,-25,24.9,114,91.3,73.4,121,76.3
CC(=O)[C@H]1CC[C@H]2[C@@H]3CC[C@H]4C[C@H](O)CC[C@]4(C)[C@H]3C(=O)C[C@]12C,16.2,15.5,9.4,17.2,12.9,138,99.4,124,132,99.3
O=C1CCO1,-26.6,21.4,7.5,49.5,7.2,56.2,99.8,78.6,113,107
C[C@H]1O[C@H](O[C@H]2[C@H](O)[C@@H](O)[C@@H](O)[C@H](O)[C@@H]2O)[C@@H](N)C[C@@H]1NC(=N)C(=O)O,1.8,-0.4,8,5.4,0.8,89.7,113,96,125,153
C[N+]1([O-])[C@@H]2CC[C@H]1CC(OC(=O)C(CO)c1ccccc1)C2 (stereo not given in full),-30.7,0.3,-12.9,-21.9,1.1,65,91.4,77.6,136,75.4
CN1[C@@H]2C[C@@H](OC(=O)[C@H](CO)c3ccccc3)C[C@H]1[C@@H]1O[C@@H]12,-12.4,1.5,-2.7,-18,1.1,97.2,103,95.4,102,101
CC(C)(C#N)O[C@@H]1O[C@H](CO)[C@@H](O)[C@H](O)[C@H]1O,-18,8.3,5.1,2.7,-7.4,80.4,102,111,76.3,113
CC1(C)C2CC(=O)[C@]3(C)C(CC[C@@]4(C)[C@H](c5ccoc5)OC(=O)[C@H]5O[C@]543)[C@@]2(C)C(=O)C[C@H]1O (stereo not given in full),-17.8,12,-9.2,1.9,1.1,104,104,119,93.7,81.5
O=C1C=C2C(=CCOC2O)O1 (stereo not given),27.1,36.5,33.3,49.8,56.1,76.6,40.8,41.5,23.3,20.4
CCCC(C)C1(CC)C(=O)NC(=O)NC1=O (stereo not given),-12.4,-32.6,0.3,-9.4,11.3,97.4,73.4,108,91.2,101
C/C=C(\C)C(=O)O[C@H]1C[C@@H](OC(C)=O)[C@@]2(C(=O)OC)CO[C@H]3[C@@H](O)[C@@](C)([C@]45O[C@@]4(C)[C@@H]4C[C@H]5O[C@@H]5OC=C[C@@]54O)[C@H]4[C@]1(CO[C@]4(O)C(=O)OC)[C@@H]32 [Azadirachtin A],-9.8,-2.5,16.8,2,17.8,117,145,106,133,144
C=C[C@H]1CN2CC[C@H]1C[C@H]2[C@H](O)c1ccnc2ccccc12,6.2,5.1,-12.5,-4.3,9.4,126,101,82.7,91.4,111
CC(=O)O[C@H]1[C@H]2[C@@H](OC(=O)Cc3ccccc3)[C@@H](C)C[C@]2(OC(C)=O)C(=O)/C(C)=C/[C@@H]2[C@H](CC[C@@]13CO3)C2(C)C,-26.2,-19.9,-2.9,18.9,3,97.7,112,116,155,83.9
Cc1c(O)c(O)cc2c1CC=C1[C@@]2(C)CC[C@@]2(C)[C@@H]3C[C@](C)(C(=O)O)CC[C@]3(C)CC[C@]12C,10.5,17,15.9,58.2,72.7,140,115,88.3,26.4,6.3
C[C@@H]1O[C@@H](O[C@@H]2C=C3CC[C@@H]4[C@H](CC[C@]5(C)[C@@H](c6ccc(=O)oc6)CC[C@]45O)[C@@]3(C)CC2)[C@H](O)[C@H](O)[C@H]1O,24.1,21,24.3,25.8,49.9,31.8,60,35.6,16.8,49.7
CN[C@@H]1[C@@H](O)[C@@H](O[C@@H]2[C@@H](O)[C@H](O[C@H]3O[C@H]([C@@H](C)O)[C@@H](O)[C@H](O)[C@H]3N)[C@@H](N)C[C@H]2N)OC[C@]1(C)O,-9.8,-1.8,-2.9,5.4,9.6,119,83.2,89.2,82.6,70
Nc1ncn[nH]1,-18,9,-5.9,6.1,0,108,114,92.3,109,96.3
